Reference: publication PMC11842024, “Reversible male contraception by targeted inhibition of serine/threonine kinase 33” (Science (New York, N.Y.), 2024)
These are yes or no findings as the source states them, for the method shown. Some entries that bind do so weakly or less than the wild type.

Biological target: human STK33 kinase domain (serine/threonine kinase 33) (human) (UniProt Q9BYT3)
Assay: crystal structure; co-crystal of the STK33 kinase domain with the inhibitor CDD-2211, 2.7 Å; one dimer per asymmetric unit; both purified

binding: binds
B1: human STK33 kinase domain (serine/threonine kinase 33) (domain or fragment, UniProt Q9BYT3 99-383)
chain: GKVPHIRIENGAAIEEIYTFGRILGKGSFGIVIEATDKETETKWAIKKVNKEKAGSSAVKLLEREVNILKSVKHEHIIHLEQVFETPKKMYLVMELCEDGELKEILDRKGHFSENETRWIIQSLASAIAYLHNNDIVHRDLKLENIMVKSSLIDDNNEINLNIKVTDFGLAVKKQSRSEAMLQATCGTPIYMAPEVISAHDYSQQCDIWSIGVVMYMLLRGEPPFLASSEEKLFELIRKGELHFENAVWNSISDCAKSVLKQLMKVDPAHRITAKELLDNQWLTG
